Among the data in article PMC3613372 are binding values, retold here.

Protein sequences, listed by entry. Tags and fused reporters are not part of them. Lines headed by an entry give the natural chain unless they say otherwise; changes in a name come on top. Residues count along the entry.
UniProt Q15853: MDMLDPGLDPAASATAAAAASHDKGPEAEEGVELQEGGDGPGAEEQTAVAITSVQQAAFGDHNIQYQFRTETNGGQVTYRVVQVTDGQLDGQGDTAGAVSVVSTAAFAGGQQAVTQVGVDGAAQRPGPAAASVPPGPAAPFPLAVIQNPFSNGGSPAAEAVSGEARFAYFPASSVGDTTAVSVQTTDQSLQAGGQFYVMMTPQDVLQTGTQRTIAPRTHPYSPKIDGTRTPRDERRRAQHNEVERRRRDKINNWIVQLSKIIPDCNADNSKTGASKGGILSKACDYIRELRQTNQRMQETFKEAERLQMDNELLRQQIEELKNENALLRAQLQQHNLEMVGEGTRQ
UniProt P25490: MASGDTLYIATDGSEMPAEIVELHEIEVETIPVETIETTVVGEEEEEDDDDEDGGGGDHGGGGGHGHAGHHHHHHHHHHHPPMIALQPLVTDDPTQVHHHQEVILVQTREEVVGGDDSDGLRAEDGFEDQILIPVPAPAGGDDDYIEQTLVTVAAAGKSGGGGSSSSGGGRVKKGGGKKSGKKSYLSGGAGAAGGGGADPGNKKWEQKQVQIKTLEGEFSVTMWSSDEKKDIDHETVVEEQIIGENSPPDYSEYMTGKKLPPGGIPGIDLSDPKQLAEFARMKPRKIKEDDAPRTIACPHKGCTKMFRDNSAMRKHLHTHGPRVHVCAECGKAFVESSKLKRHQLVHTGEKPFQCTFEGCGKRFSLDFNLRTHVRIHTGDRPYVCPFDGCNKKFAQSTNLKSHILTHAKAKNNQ
UniProt P17676, residues 24-345: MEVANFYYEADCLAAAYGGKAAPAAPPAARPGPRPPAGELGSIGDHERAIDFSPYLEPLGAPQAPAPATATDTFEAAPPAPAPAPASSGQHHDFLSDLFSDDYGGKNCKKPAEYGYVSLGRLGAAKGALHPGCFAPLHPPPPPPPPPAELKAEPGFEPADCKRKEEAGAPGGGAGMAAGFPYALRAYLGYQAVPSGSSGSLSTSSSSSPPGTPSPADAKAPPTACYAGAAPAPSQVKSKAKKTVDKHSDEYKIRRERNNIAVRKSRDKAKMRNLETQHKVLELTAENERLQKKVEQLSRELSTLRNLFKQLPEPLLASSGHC

Results are given in words; binding and its absence hold for the method and conditions named. In cells and extracts the contact can be indirect. Some entries that bind do so weakly or less than the wild type.

Test [1] has as its target USF2 (human (endogenous in Beas2B)) (UniProt Q15853). The experiment in a line: co-IP; Beas2B cells in RIPA buffer (50 mM Tris/HCl pH 7.4, 150 mM NaCl, 1% NP40, 0.5% sodium deoxycholate, 0.1% SDS, 5 mM EDTA); IP with 3 µg of specific antibody or non-specific anti-HA (ExactaCruz F kit); western blot; in Figure 7B cells with or without NAF treatment.
The target in test [2] is YY1 (human (endogenous in Beas2B)) (UniProt P25490). The test is described as above.

For “CCAAT/enhancer binding protein beta (C/EBPβ) (from UniProt P17676-2 1-322)”, the binding result in test [1] was “binds”.

With USF2 (from UniProt Q15853-1 1-346), the binding entry in test [2] is listed as “binds”.

Consider YY1 (from UniProt P25490 1-414), for which the binding entry in test [1] is “binds”.
